In article PMC12320246:
No constants are given. Whether binding was seen depends on the method and setting. Binding seen in cells or lysates may run through a third protein. A yes stands for co-enrichment or nearness to the bait. Other partners may have been found.

The chains behind the UniProt entries cited, without tags or fusion partners.
UniProt O00425: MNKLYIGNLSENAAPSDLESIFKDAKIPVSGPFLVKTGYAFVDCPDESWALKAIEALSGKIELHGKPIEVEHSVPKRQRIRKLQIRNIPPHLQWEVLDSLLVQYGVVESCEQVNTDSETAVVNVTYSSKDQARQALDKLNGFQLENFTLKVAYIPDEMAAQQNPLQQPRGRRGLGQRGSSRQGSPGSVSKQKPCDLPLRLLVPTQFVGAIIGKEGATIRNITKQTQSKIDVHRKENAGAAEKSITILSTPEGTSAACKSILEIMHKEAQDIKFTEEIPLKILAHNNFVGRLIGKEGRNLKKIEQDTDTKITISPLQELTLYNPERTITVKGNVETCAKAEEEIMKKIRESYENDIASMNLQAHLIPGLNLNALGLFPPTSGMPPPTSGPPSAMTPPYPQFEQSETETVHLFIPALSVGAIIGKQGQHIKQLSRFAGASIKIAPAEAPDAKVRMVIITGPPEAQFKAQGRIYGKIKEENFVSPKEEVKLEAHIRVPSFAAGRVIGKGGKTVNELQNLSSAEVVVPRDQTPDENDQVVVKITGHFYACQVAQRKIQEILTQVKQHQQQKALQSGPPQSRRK

Target: T1, Olfactomedin-like 1 (OLFML1), endogenously expressed (human (endogenous in HCT8 and CaCo2)) (UniProt Q6UWY5)
T1 sequence: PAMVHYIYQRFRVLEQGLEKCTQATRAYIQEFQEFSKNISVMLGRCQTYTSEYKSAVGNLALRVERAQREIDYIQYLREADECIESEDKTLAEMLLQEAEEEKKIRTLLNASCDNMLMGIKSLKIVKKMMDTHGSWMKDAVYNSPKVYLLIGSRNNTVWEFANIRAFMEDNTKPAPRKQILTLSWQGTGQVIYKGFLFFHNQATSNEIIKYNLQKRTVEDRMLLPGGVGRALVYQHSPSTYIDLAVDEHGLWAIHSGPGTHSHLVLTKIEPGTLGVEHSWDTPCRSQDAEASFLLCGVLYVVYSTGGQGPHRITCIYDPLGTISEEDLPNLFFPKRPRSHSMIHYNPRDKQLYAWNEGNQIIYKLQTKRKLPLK
Assay: affinity purification with mass spectrometry; HCT8 and CaCo2 lysates immunoprecipitated with anti-OLFML1 antibody or rabbit IgG; silver staining; differential band at about 70 kDa analysed by LC-MS

binding: binds
Substance: Insulin-like growth factor 2 mRNA-binding protein 3 (IGF2BP3), endogenously expressed (from UniProt O00425 1-579)
